Results from the supplement of paper PMC12067093, “Discovery and optimisation of a covalent ligand for TRIM25 and its application to targeted protein ubiquitination” (Chemical Science, 2025).
The list shows a part of the results.

Protein sequences, listed by entry. Tags and fused reporters are not part of them. Lines headed by an entry give the natural chain unless they say otherwise; changes in a name come on top.
UniProt Q13131: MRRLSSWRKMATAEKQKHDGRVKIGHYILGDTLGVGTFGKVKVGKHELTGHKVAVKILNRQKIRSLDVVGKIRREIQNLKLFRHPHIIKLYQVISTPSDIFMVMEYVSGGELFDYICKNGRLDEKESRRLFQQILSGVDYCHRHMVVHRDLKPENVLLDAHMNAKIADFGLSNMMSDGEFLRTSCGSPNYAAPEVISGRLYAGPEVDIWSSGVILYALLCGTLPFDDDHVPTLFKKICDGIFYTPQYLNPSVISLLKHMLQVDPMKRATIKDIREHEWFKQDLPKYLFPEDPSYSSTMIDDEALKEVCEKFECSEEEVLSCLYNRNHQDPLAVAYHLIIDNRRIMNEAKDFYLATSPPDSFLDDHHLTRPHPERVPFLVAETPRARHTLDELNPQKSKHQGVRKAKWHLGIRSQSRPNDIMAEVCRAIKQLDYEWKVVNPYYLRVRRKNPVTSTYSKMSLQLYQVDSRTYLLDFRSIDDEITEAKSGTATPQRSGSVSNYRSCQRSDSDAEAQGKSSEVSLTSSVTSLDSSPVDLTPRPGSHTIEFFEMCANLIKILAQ
UniProt O94906: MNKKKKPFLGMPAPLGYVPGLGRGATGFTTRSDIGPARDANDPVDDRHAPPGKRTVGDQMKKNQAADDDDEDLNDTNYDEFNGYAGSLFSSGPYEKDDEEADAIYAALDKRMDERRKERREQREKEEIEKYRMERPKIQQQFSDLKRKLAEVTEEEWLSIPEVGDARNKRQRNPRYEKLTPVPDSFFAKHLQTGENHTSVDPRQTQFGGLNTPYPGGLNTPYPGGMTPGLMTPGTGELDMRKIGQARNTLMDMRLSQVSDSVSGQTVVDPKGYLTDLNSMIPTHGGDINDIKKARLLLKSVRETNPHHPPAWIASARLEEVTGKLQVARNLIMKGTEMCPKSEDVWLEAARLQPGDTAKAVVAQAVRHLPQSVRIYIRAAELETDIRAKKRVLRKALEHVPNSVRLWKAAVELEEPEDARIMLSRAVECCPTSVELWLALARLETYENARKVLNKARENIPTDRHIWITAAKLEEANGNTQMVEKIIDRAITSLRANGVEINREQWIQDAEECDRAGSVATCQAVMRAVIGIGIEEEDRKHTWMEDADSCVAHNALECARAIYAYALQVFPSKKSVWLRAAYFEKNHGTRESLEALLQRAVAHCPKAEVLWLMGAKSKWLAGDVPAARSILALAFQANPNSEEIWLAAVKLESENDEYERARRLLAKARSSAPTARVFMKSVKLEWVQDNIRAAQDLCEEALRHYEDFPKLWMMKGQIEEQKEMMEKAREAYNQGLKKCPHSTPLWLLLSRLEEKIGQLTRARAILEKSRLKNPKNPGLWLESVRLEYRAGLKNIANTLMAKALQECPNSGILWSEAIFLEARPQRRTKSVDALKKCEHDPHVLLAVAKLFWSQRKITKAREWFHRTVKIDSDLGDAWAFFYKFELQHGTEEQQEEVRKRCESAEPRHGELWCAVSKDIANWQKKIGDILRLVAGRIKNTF
UniProt Q5THK1: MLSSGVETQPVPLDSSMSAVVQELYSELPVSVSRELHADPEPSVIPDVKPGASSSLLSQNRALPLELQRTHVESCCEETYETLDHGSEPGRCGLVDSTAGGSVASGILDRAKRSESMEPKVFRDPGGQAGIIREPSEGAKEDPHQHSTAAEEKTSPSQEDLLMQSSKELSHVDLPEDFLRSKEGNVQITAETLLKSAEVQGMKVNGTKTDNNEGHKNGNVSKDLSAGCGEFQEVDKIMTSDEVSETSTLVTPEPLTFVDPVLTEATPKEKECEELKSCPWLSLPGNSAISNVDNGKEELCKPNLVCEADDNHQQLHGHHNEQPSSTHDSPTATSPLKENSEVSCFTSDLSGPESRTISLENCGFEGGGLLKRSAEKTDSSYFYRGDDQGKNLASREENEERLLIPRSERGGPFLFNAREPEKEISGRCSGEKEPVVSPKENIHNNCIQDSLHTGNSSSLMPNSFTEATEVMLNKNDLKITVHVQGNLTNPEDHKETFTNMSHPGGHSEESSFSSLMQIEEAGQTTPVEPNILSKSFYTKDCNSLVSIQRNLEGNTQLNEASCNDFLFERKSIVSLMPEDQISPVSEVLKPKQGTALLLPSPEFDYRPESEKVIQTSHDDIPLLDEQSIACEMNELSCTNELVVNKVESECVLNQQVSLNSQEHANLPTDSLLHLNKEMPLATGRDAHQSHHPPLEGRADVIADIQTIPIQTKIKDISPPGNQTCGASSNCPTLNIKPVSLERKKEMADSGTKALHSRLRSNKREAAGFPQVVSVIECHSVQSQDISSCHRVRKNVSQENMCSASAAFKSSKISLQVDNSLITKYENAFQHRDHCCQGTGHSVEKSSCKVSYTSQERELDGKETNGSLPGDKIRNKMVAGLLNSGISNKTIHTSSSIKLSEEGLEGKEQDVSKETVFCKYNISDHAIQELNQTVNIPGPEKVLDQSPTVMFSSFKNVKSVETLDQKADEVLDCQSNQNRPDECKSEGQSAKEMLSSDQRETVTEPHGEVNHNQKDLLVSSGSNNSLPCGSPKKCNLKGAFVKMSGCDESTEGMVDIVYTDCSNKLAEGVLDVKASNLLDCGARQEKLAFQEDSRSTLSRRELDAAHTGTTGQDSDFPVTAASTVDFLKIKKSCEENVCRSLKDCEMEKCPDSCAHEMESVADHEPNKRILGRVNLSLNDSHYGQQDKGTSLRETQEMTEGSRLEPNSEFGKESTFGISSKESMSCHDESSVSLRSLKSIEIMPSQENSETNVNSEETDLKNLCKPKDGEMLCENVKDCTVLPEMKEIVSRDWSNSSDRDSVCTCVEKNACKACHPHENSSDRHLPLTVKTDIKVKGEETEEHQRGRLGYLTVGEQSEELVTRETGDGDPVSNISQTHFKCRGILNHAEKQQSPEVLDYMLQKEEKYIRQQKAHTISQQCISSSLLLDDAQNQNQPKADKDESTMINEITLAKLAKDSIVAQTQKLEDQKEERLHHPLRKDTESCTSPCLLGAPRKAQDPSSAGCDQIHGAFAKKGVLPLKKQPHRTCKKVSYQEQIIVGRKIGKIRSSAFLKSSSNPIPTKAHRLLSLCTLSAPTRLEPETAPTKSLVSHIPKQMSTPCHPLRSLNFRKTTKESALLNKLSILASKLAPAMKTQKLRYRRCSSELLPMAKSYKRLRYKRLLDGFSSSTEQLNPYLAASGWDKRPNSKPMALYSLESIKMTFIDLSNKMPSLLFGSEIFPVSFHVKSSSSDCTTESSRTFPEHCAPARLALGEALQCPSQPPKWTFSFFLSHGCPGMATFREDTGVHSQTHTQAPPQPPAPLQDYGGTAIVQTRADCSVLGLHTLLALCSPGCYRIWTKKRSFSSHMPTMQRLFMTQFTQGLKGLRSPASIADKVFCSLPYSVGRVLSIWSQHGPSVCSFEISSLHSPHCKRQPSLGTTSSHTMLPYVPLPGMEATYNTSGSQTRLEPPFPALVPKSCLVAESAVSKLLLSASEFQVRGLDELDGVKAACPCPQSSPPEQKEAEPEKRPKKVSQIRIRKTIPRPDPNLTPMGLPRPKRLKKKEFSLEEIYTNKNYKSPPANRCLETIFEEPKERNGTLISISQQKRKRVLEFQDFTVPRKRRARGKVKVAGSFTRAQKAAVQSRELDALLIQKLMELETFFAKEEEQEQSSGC
UniProt P60891: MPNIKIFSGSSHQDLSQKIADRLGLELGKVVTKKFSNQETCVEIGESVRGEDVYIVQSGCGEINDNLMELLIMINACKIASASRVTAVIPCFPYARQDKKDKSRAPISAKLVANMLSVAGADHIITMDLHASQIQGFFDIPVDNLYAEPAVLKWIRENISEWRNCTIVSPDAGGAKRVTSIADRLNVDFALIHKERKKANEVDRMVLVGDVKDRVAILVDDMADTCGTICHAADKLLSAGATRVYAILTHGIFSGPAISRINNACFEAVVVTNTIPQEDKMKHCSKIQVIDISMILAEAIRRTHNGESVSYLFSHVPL
UniProt O75569: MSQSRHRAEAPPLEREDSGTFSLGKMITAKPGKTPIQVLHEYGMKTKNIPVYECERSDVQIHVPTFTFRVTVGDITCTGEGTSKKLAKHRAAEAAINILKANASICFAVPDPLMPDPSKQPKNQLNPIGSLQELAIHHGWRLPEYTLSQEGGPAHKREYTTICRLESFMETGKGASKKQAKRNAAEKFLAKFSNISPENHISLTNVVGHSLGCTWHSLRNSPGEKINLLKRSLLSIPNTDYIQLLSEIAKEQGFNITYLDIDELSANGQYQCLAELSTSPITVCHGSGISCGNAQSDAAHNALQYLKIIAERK
UniProt P05771, whole entry, looked up: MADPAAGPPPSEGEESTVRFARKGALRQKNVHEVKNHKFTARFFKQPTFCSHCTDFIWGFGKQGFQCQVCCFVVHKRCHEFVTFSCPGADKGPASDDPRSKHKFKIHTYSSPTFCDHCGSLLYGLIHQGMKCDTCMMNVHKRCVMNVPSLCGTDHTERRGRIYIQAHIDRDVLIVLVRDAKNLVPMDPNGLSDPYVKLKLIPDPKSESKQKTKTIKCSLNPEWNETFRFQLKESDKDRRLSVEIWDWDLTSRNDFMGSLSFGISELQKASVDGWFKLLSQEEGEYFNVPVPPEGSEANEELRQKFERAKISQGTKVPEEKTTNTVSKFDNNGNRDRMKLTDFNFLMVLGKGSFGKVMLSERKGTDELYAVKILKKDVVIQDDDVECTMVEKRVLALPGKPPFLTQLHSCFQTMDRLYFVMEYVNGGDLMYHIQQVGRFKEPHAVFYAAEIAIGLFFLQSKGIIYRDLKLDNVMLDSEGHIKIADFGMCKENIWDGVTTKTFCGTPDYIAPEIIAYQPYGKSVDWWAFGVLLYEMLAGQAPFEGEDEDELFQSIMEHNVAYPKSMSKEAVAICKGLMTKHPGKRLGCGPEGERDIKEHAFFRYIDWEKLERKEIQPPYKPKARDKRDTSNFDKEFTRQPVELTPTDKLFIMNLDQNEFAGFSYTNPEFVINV
UniProt Q6P2P2: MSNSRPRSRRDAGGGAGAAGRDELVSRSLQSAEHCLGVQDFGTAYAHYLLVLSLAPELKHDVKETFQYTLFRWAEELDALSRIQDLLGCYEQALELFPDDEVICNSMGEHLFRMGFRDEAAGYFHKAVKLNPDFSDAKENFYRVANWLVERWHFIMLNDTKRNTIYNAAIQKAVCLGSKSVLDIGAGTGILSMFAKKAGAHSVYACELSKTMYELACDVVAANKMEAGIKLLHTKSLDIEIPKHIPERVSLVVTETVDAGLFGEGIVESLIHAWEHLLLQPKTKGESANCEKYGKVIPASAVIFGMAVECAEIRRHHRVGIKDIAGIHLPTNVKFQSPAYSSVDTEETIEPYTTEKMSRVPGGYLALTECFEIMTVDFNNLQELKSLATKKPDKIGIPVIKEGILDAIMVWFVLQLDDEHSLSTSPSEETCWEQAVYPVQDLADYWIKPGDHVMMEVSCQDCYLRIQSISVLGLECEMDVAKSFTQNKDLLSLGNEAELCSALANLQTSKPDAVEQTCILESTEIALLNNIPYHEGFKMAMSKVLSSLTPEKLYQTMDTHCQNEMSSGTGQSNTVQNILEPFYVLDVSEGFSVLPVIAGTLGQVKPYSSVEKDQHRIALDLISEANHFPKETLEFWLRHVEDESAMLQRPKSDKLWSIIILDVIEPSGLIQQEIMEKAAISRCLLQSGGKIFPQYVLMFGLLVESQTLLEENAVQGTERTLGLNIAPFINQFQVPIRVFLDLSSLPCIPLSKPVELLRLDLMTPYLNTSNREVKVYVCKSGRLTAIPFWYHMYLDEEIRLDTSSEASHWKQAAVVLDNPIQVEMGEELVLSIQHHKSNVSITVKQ
UniProt P11908: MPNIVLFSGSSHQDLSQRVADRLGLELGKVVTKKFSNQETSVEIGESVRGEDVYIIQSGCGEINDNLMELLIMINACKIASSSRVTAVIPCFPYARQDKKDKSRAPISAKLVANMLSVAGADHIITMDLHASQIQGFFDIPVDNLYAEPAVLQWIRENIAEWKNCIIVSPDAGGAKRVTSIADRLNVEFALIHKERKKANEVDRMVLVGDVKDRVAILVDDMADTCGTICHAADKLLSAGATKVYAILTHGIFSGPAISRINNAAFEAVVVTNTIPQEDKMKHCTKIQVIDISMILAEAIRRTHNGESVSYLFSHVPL
UniProt P49642: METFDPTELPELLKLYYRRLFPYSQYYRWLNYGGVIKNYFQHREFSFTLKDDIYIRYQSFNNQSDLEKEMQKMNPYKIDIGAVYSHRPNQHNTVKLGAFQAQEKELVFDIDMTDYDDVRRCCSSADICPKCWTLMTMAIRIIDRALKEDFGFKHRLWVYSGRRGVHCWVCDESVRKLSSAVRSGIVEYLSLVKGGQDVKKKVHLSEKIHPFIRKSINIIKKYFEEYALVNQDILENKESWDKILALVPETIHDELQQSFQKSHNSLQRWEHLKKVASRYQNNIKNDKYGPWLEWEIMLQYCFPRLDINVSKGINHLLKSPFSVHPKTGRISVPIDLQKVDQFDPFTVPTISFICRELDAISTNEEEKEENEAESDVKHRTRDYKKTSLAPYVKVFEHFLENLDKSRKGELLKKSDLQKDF

Compound: Cc1cc(ccc1-c1ccccc1)C(=O)N1CCCN(CC1)C(=O)CCl [compound 10]
Assay: probe-labelled cysteine peptide fold change vs DMSO (competition) (log2 fold change); higher = less target engagement (more negative = stronger competition)
Conditions: THP-1, incubation time: 4 h
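Note: competitive profiling in live THP-1 cells: cysteine peptides tagged with an iodoacetamide desthiobiotin (IA-DTB) probe, intensity after compound treatment relative to DMSO-treated cells.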

| Target | probe-labelled cysteine peptide fold change (10 µM) | probe-labelled cysteine peptide fold change (50 µM) |
| --- | --- | --- |
| PRKAR1A_P10644_18_SLRECELYVQK (UniProt P10644) | -0.355 | -0.803 |
| PRKAA1_Q13131_238_ICDGIFYTPQYLNPSVISLLK (UniProt Q13131) | 0.08 | 0.158 |
| PRPF6_O94906_550+558_HTWMEDADSCVAHNALECAR (UniProt O94906) | 0.0857 | -0.191 |
| PRPF19_Q9UMS4_5+16_SLICSISNEVPEHPCVSPVSNHVYER (UniProt Q9UMS4) | 0.0585 | 0.103 |
| PRR14L_Q5THK1_1483_DTESCTSPCLLGAPR (UniProt Q5THK1) | -0.528 | -1.12 |
| PRKDC_P78527_491_ICSKPVVLPK (UniProt P78527) | -0.0652 | -0.0574 |
| PRPS1_P60891_41_FSNQETCVEIGESVR (UniProt P60891) | 0.0317 | 0.195 |
| PRKDC_P78527_1399_VLVQTLCEPASIGFNIGDVQVMAHLPDVCVNLMK (UniProt P78527) | 0.144 | 0.164 |
| PRKRA_O75569_54_NIPVYECER (UniProt O75569) | -0.0806 | -0.191 |
| PRPF6_O94906_837_CEHDPHVLLAVAK (UniProt O94906) | -0.198 | -0.0758 |
| PRPF8_Q6P2Q9_2223_TIIITCSFTPGSCTLTAYK (UniProt Q6P2Q9) | 0.00546 | 0.3 |
| PRKCB_P05771_86_CHEFVTFSCPGADK (UniProt P05771) | 0.0861 | 0.103 |
| PRKDC_P78527_3281_TRDDWLVSWVQSYCR (UniProt P78527) | 0.0898 | 0.297 |
| PRKAA1_Q13131_425_SQSRPNDIMAEVCR (UniProt Q13131) | -0.0282 | -0.0428 |
| PRKDC_P78527_3683_ECSPWMSDFKVEFLR (UniProt P78527) | -0.315 | -0.935 |
| PRMT7_Q9NVM4_366+368_QMRPVCDCQAHLLWNRPR (UniProt Q9NVM4) | 0.0235 | -0.133 |
| PRUNE1_Q86TP1_303+313_QLAIFCPHVALQTTICEVLER (UniProt Q86TP1) | -0.0796 | -0.0166 |
| PRMT9_Q6P2P2_683_CLLQSGGK (UniProt Q6P2P2) | 0.066 | 0.0126 |
| PRPS2_P11908_230_VAILVDDMADTCGTICHAADK (UniProt P11908) | 0.358 | -0.372 |

Shown as tab-separated lines: part of the list above
Target	probe-labelled cysteine peptide fold change (10 µM)	probe-labelled cysteine peptide fold change (50 µM)
PRR14L_Q5THK1_1483_DTESCTSPCLLGAPR (UniProt Q5THK1)	-0.528	-1.12
PRKDC_P78527_491_ICSKPVVLPK (UniProt P78527)	-0.0652	-0.0574
PRPS1_P60891_41_FSNQETCVEIGESVR (UniProt P60891)	0.0317	0.195
PRKDC_P78527_1399_VLVQTLCEPASIGFNIGDVQVMAHLPDVCVNLMK (UniProt P78527)	0.144	0.164
PRKRA_O75569_54_NIPVYECER (UniProt O75569)	-0.0806	-0.191
PRPF6_O94906_837_CEHDPHVLLAVAK (UniProt O94906)	-0.198	-0.0758
PRPF8_Q6P2Q9_2223_TIIITCSFTPGSCTLTAYK (UniProt Q6P2Q9)	0.00546	0.3
PRKCB_P05771_86_CHEFVTFSCPGADK (UniProt P05771)	0.0861	0.103
PRKDC_P78527_3281_TRDDWLVSWVQSYCR (UniProt P78527)	0.0898	0.297
PRKAA1_Q13131_425_SQSRPNDIMAEVCR (UniProt Q13131)	-0.0282	-0.0428

The list continues:

| Target | probe-labelled cysteine peptide fold change (10 µM) | probe-labelled cysteine peptide fold change (50 µM) |
| --- | --- | --- |
| PRPF8_Q6P2Q9_2216+2223_TIIITCSFTPGSCTLTAYK (UniProt Q6P2Q9) | -0.0838 | -0.0595 |
| PRKDC_P78527_3014_SLEYCSTASIDSENPPDLNK (UniProt P78527) | -0.149 | 0.00293 |
| PRKD2_Q9BZL6_169_CDGCGLNYHK (UniProt Q9BZL6) | -0.0725 | 0.00149 |
| PSD4_Q8NDX1_32_LPDHPQPMEILNLYLGDSLEPHPGECPR (UniProt Q8NDX1) | -0.0723 | 0.075 |
| PRKCI_P41743_108+117_DSELLIHVFPCVPERPGMPCPGEDK (UniProt P41743) | -0.144 | -0.535 |
| PRKDC_P78527_232_GLSSLLCNFTK (UniProt P78527) | -0.254 | 0.0468 |
| PRPF6_O94906_513_EQWIQDAEECDR (UniProt O94906) | -0.0378 | 0.191 |
| PRIM1_P49642_170_GVHCWVCDESVR (UniProt P49642) | 0.179 | 0.421 |
| PRMT1_Q99873_103_DKVVLDVGSGTGILCMFAAK (UniProt Q99873) | -0.168 | -0.709 |
| PRKCB_P05771_132+135_CDTCMMNVHKR (UniProt P05771) | -0.193 | -0.881 |
| PRMT3_O60678_67_LFTSAEETFSHCK (UniProt O60678) | 0.049 | 0.0747 |
| PRKAR2B_P31323_116_RASVCAEAYNPDEEEDDAESR (UniProt P31323) | -0.353 | 0.149 |
| PRKDC_P78527_4061_LAGANPAVITCDELLLGHEK (UniProt P78527) | -0.259 | 0.246 |
| PREX1_Q8TCU6_972_QAPLEPHPLCGLDFCPTNCHINLMEVSYPK (UniProt Q8TCU6) | -0.0151 | -0.198 |
| PRPF6_O94906_739_KCPHSTPLWLLLSR (UniProt O94906) | -0.167 | -0.0418 |
| PRKDC_P78527_3837_APPCEYK (UniProt P78527) | -0.155 | -0.0934 |
| PRKDC_P78527_1742_FNNYVDCMKK (UniProt P78527) | -0.121 | -0.562 |
| PSMA1_P25786_182_HMSEFMECNLNELVK (UniProt P25786) | 0.212 | 0.142 |
| PRG2_P13727_201_GGHCVALCTR (UniProt P13727) | -0.0284 | 0.216 |
